# PubChem BioAssay AID720504 (National Center for Advancing Translational Sciences (NCATS), 2013)
# Protein sequences, listed by entry. Tags and fused reporters are not part of them.
# UniProt P53350, whole entry, looked up: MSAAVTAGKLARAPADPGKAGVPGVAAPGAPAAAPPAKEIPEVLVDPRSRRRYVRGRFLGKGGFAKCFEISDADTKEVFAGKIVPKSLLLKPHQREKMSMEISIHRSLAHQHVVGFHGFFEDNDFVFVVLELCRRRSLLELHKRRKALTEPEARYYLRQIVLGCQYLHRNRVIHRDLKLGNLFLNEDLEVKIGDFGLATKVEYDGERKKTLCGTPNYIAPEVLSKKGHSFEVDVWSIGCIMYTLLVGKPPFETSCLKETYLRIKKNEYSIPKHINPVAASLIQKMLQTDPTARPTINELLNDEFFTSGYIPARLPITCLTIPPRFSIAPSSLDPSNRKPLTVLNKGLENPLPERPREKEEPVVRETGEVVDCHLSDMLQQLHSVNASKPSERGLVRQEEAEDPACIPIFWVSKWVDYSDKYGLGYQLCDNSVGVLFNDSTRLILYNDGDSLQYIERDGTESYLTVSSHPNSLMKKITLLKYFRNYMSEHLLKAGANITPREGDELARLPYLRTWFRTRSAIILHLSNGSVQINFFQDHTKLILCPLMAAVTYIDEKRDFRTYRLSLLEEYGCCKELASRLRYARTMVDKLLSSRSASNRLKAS
# About 10,000 (2.8%) of roughly 360,000 compounds were called active. The shares of active, inactive and inconclusive entries below differ from those in the screen. Calls follow the shape of the dose curve; as a rule, active = well fitted inhibition curve with a large enough effect; inconclusive = small, poorly fitted or top-dose-only effect; inactive = flat fitted curve, though single readings scatter. Where the call is inconclusive, the potency comes from a doubtful curve fit.
# Target: Serine/threonine-protein kinase PLK1 (Homo sapiens) (UniProt P53350)
# Test: qHTS for Inhibitors of PLK1-PDB (polo-like kinase 1 - polo-box domain): Primary Screen; also: nearly all actives have a fitted effect of over 65% in size; as to max response, negative = inhibition: series mostly up to about 57 µM
# Conditions: Plk1 PBD binding of FITC phosphopeptide, fluorescence polarization
# % is scaled to controls: 0 for no effect and ±100 for the full control effect; potency is read from the fitted curve at half-maximal effect.
SMILES,Potency,"max response, negative = inhibition"
O=C(CCCC(=O)N(c1cccc(F)c1)C(C(=O)NC1CCCC1)c1ccc(O)cc1)Nc1ccccn1 (configuration not stated),"inconclusive: 26.7 µM [inhibitor, single point]",
COc1ccccc1C1C2=C(N=c3s/c(=C/c4cccc(OCC(=O)O)c4)c(=O)n31)c1ccccc1CC2 (configuration not stated),"inconclusive: 21.2 µM [inhibitor, partial curve]",
COC(=O)Cn1c(=O)c(=O)n(CC(=O)OC)c2ccccc21,"inconclusive: 29.9 µM [inhibitor, single point]",
COc1cc(/C=C2\N=C(C)OC2=O)cc(Cl)c1OC(C)=O,,inactive: -22.2%
Cc1ccc(C)c(S(=O)(=O)NCc2ccc(C(=O)NCc3ccco3)cc2)c1,"inconclusive: 33.6 µM [inhibitor, single point]",
Cc1cc(NC(=O)c2ccc(S(=O)(=O)N3CCc4ccccc43)cc2)no1,,inconclusive: -24.9% [inhibitor]
CC(C)(C)C(=O)NC(=S)NNC(=O)C(c1ccccc1)c1ccccc1,"inconclusive: 6.7 µM [inhibitor, single point]",
COc1ccccc1C(=O)NC(=S)Nc1cccnc1Cl,"inconclusive: 26.7 µM [inhibitor, partial curve]",
C/C=N\NC(=O)COc1cc(C)ccc1C,,inconclusive: -32.3% [inhibitor]
CCCCOc1ccc(C2C(C(=O)c3cccs3)=C(O)C(=O)N2CCN2CCOCC2)cc1 (configuration not stated),,inactive: -10.6%
COc1cc(NC(=S)NCCc2ccc(S(N)(=O)=O)cc2)c(OC)cc1Cl,"inconclusive: 23.8 µM [inhibitor, single point]",
CCc1nc(SCC(=O)NNC(=O)c2ccc(OC)cc2)c2ccccc2n1,"inconclusive: 26.7 µM [inhibitor, partial curve]",
CCCC(=O)Nc1ccccc1NC(=O)CN(C)S(=O)(=O)c1ccccc1,"inconclusive: 29.9 µM [inhibitor, single point]",
O=[N+]([O-])c1cccc(Cl)c1NCCNc1ncc(C(F)(F)F)cc1Cl,"inconclusive: 21.2 µM [inhibitor, single point]",
O=C(CNS(=O)(=O)c1cccs1)N1CCN(c2ccccn2)CC1,,inactive: -2.12%
Cc1cc(Cl)ccc1Oc1ncnc2onc(C)c12,"inconclusive: 29.9 µM [inhibitor, partial curve]",
O=C(CSc1ncn(-c2ccccc2)n1)Nc1nc2c(s1)CCCC2,"inconclusive: 18.9 µM [inhibitor, partial curve]",
CCOC(=O)c1c(C)oc2c1c(CN1CCN(C(=O)OCC)CC1)c(O)c1ccccc12,"inconclusive: 2.99 µM [inhibitor, partial curve]",
CCc1sc(C(=O)NNC(=O)CNC(=O)c2ccccc2F)cc1C,,inactive: -13.3%
CC1(OC(=O)c2cccs2)C(=O)C=C2C=C3CCCN3C=C2C1=O (configuration not stated),"inconclusive: 29.9 µM [inhibitor, partial curve]",
Cc1ccc(SCc2cc(=O)[nH]c(/N=C(\N)Nc3cccc4ccccc34)n2)cc1,"inconclusive: 29.9 µM [inhibitor, partial curve]",
CCCCCNC(=O)C(c1ccc(OC)cc1)n1c(=O)c(-c2cc3ccccc3[nH]2)nc2ccccc21 (configuration not stated),,inactive: 4.14%
CC1CCN(C(=O)COC(=O)CCC(=O)c2ccc(Cl)cc2)CC1,,inactive: 3.66%
NC(=S)Nc1ccc(F)c(F)c1F,,inactive: 0.135%

# A stretch from the list above, for reference:
SMILES,Potency,"max response, negative = inhibition"
O=C(CSc1ncn(-c2ccccc2)n1)Nc1nc2c(s1)CCCC2,"inconclusive: 18.9 µM [inhibitor, partial curve]",
CCOC(=O)c1c(C)oc2c1c(CN1CCN(C(=O)OCC)CC1)c(O)c1ccccc12,"inconclusive: 2.99 µM [inhibitor, partial curve]",

# Remaining list, next part:

SMILES,Potency,"max response, negative = inhibition"
O=C(N/N=C/c1ccc(N2CCOCC2)cc1)c1ccccc1OCCOc1ccccc1,active: 2.99 µM,
CCOC(=O)c1cc(OC(=O)c2cccs2)n(-c2ccccc2)n1,"inconclusive: 29.9 µM [inhibitor, partial curve]",
CC(=O)OCC1=C(C(=O)O)N2C(=O)[C@@H](NC(=O)CSc3ccncc3)[C@H]2SC1,"inconclusive: 18.9 µM [inhibitor, partial curve]",
Cc1ccc(C2C(C#N)=C(N)Oc3n[nH]c(-c4cccnc4)c32)o1 (configuration not stated),"inconclusive: 23.8 µM [inhibitor, partial curve]",
CC(=O)Nc1nc2ccc(C(=O)NCCOC(=O)C3CCCCC3)cc2s1,,inconclusive: -32.1% [inhibitor]
O=C(Cc1ccccc1)NCC(=O)N1CCCCCC1,,inactive: -1.85%
CCCCNC(=O)C1CC(c2ccc(C(F)(F)F)cc2)=NO1 (configuration not stated),,inactive: 2.17%
Cc1ccc(NC(=O)Nc2c(Cl)cccc2Cl)cn1,,inactive: -6.04%
Cc1ccc(CSc2ccc(S(=O)(=O)N3CCCCC3)cn2)cc1,"inconclusive: 7.52 µM [inhibitor, partial curve]",
COc1ccc(OC)c(S(=O)(=O)N2CCC(C(=O)NCc3ccccn3)CC2)c1,,inactive: -7.33%
COC(=O)c1ccc(N2NC(=O)/C(=C/c3ccc(OC)c(OC)c3)C2=O)cc1,active: 21.2 µM,
O=C(COC(=O)c1ccc(Cl)nc1)NCCc1ccc(F)cc1,,inactive: -12.1%
O=C1C=CN2CCCCC2CC1 (configuration not stated),,inactive: -17.8%
O=C(Nc1ccc2c(c1)OCO2)c1ccc(Br)o1,,inactive: -2.05%
Cc1c(C(=O)NCCS(=O)(=O)N2CCN(c3ccccc3F)CC2)cccc1[N+](=O)[O-],,inactive: 3.65%
CCCN1C(=O)/C(=C\C=C2\N(CC)c3ccccc3C2(C)C)SC1=S,"inconclusive: 16.8 µM [inhibitor, single point]",
COc1ccc(NS(=O)(=O)c2cc(NC(=O)c3ccccc3)ccc2N2CCOCC2)cc1,,inactive: -0.642%
CNC(=O)c1c[nH]c2ccc(S(=O)(=O)Nc3cccc(SC)c3)cc2c1=O,,inactive: -1.71%
CN1CCN(C2=NC(=O)/C(=C/c3ccccc3OS(=O)(=O)c3ccccc3)S2)CC1,"inconclusive: 37.7 µM [inhibitor, single point]",
CCc1sc(NC(=O)CN2CCOCC2)nc1-c1ccccc1,"inconclusive: 26.7 µM [inhibitor, single point]",
O=C(C=P(c1ccccc1)(c1ccccc1)c1ccccc1)c1ccccc1-c1ccccc1C(=O)C=P(c1ccccc1)(c1ccccc1)c1ccccc1,"inconclusive: 67 µM [inhibitor, partial curve]",
CCc1nnc(NC(=O)/C=C/c2cccs2)s1,,inactive: -3.48%
CCn1nc(-c2ccccc2)c2nc3ccccc3nc21,"inconclusive: 16.8 µM [inhibitor, partial curve]",
COc1cc(C(=O)NC2=C(C#N)CCC2)cc(OC)c1OC,,inactive: -6.77%

# Reformatted bar-delimited: entries from further up
SMILES | Potency | max response, negative = inhibition
COc1ccc(NS(=O)(=O)c2cc(NC(=O)c3ccccc3)ccc2N2CCOCC2)cc1 |  | inactive: -0.642%
CN1CCN(C2=NC(=O)/C(=C/c3ccccc3OS(=O)(=O)c3ccccc3)S2)CC1 | inconclusive: 37.7 µM [inhibitor, single point] | 

# Next part

SMILES,Potency,"max response, negative = inhibition"
CC1CCc2nn(CC(=O)NC3CCCC(C)C3C)cc2C1 (configuration not stated),"inconclusive: 29.9 µM [inhibitor, partial curve]",
Oc1ccc(F)c2cccnc12,active: 5.32 µM,
CC(C)c1ccc(N(C(=O)CNC(=O)c2ccco2)C(C(=O)NC2CCCC2)c2cccnc2)cc1 (configuration not stated),"inconclusive: 15 µM [inhibitor, partial curve, poor fit]",
CC(NC(=O)Cn1nc(C(=O)O)c2ccccc2c1=O)c1ccccc1 (configuration not stated),active: 29.9 µM,
Cc1noc(C)c1CSc1ncnc2sc3c(c12)CCCCC3,"inconclusive: 37.7 µM [inhibitor, single point]",
Cc1cc(=O)oc2c(C)c(OCC(=O)NCCN3CCOCC3)ccc12,"inconclusive: 21.2 µM [inhibitor, partial curve]",
COc1ccc2c(c1)Cc1cc(NC(=O)c3ccccc3-c3ccccc3C(=O)O)ccc1-2,"inconclusive: 33.6 µM [inhibitor, partial curve]",
N#Cc1c(NC(=O)C2CC=CCC2C(=O)O)sc2c1CCCCCC2 (configuration not stated),"inconclusive: 29.9 µM [inhibitor, partial curve]",
Cc1ccc(NCCC(=O)c2cccc([N+](=O)[O-])c2)cc1,"inconclusive: 21.2 µM [inhibitor, partial curve]",
CCCCCCCC/C=C\CCCCCCCC(=O)NCCc1ccc(O)c(O)c1,active: 23.8 µM,
O=c1cc(CO)oc(CN2CCN(Cc3ccccc3)CC2)c1O,,inactive: -8.07%
Cc1ccc(/C=C/C(=O)Nc2ccccc2C(N)=O)cc1,,inactive: -3.36%
COc1ccc(-c2nc3ccccc3s2)cc1O,active: 23.8 µM,
Cc1sc2nc(CC(=O)N3CCCC3)[nH]c(=O)c2c1C,"inconclusive: 26.7 µM [inhibitor, partial curve]",
COc1ccccc1NS(=O)(=O)c1cc(-c2cc(C)no2)ccc1OC,,inactive: -3.87%
O=C(Nc1nnc(SCCC2OCCO2)s1)C1CC(=O)N(c2ccccc2)C1 (configuration not stated),"inconclusive: 23.8 µM [inhibitor, single point]",
Fc1cccc(/C=C2\CCCC3=C2NC(=S)NC3c2cccc(F)c2)c1 (configuration not stated),,inconclusive: -30.2% [inhibitor]
CCOC(=O)C1CCCN(Cc2cc(=O)oc3cc(C)ccc23)C1 (configuration not stated),"inconclusive: 29.9 µM [inhibitor, single point]",
CC(C)NC(=O)C1(C)CCCCCN1C(=O)c1ccc(-c2ccccc2)cc1 (configuration not stated),,inactive: -8.92%
CCOC(=O)[C@]12Cc3c(cc(OC)c(OC)c3OC)[C@H]1N(CCC(=O)OC)C(=O)c1cc(OC)ccc12,active: 11.9 µM,
O=c1c2c(nc3cc(-c4cccc(F)c4)[nH]n13)CCC2,active: 23.8 µM,
Cc1nc(CCN2C(=O)c3ccccc3C2=O)cs1,"inconclusive: 16.8 µM [inhibitor, partial curve]",
Cc1[nH]nc2c1C(c1ccc(Cl)cc1)C(C#N)=C(N)O2 (configuration not stated),"inconclusive: 21.2 µM [inhibitor, single point]",
CCC/C(C#Cc1ccsc1)=C1/c2ccccc2C(=O)N1c1ccccc1,,inactive: -18.7%
